Measured values reported in PubChem BioAssay AID651640 (Broad Institute, 2012).
In all, about 350,000 compounds went through this assay and about 6,000 (1.7%) were called active. Inconclusive means that the source gave no clear call. Such entries were picked first, then a sample of the others. Cut-off read from the data, not from the text of the source: active = CPE inhibition above about 20% (passing the limit was not always enough); inconclusive = no clear call, values can overlap the other calls; tested in BHK-21 cells.

Assay: protection of cells from dengue 2 killing – plate reader, single concentration, primary screen (AID 651640);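 note: 0% = median of neutral control wells and 100% = median of positive control wells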
Conditions: DENV2-infected cells, cytopathic effect rescue, at 9.99 µM, hits give high values

Row | SMILES | CPE inhibition
1 | C[C@H]1CN([C@@H](C)CO)C(=O)c2cc(NC(=O)c3ccncc3)ccc2O[C@H]1CN(C)Cc1ccc(Oc2ccccc2)cc1 | inconclusive: 29.7%
2 | COc1cc(Cl)ccc1OCc1cc(C(=O)N2C[C@]3(C)C[C@H]2CC(C)(C)C3)no1 | inconclusive: 39.1%
3 | O=C(COC(=O)Cc1ccsc1)Nc1ccccc1Cl | inconclusive: 38.5%
4 | CCCCn1c(N)c(N(C(=O)CSc2nnnn2-c2ccc(C)cc2)C2CCCC2)c(=O)[nH]c1=O | inconclusive: 30%
5 | Cn1c(SCC(=O)N2CCCC2)nc2c(c1=O)SCC2 | active: 58.7%
6 | COc1ccc(NC(=O)Nc2cccc3c2O[C@H](CN(C)Cc2ccc(C(F)(F)F)cc2)[C@@H](C)CN([C@H](C)CO)C3=O)cc1 | active: 22.4%
7 | C[C@@H]1CN([C@@H](C)CO)C(=O)c2cccc(N(C)C)c2O[C@@H]1CN(C)S(C)(=O)=O | inactive: 1.61%
8 | COc1ccc(CN(C)C[C@@H]2Oc3ccc(NC(=O)Nc4ccc(C(F)(F)F)cc4)cc3C(=O)N([C@@H](C)CO)C[C@H]2C)cc1 | active: 43.6%
9 | C[C@H](CO)N1C[C@H](C)[C@@H](CN(C)S(=O)(=O)c2cn(C)cn2)Oc2ccc(NC(=O)Nc3cccc4ccccc34)cc2CC1=O | active: 86.2%
10 | CCOC(=O)N1CCN(C(=O)c2ccccc2N(Cc2ccccc2)S(=O)(=O)c2ccccc2)CC1 | inconclusive: 55.4%
11 | COc1ccc(F)cc1C(=O)C1CCCN(Cc2cnc(N3CCCC3)s2)C1 (centres undefined) | inconclusive: 37.2%
12 | N/C(=N\OC(=O)CCC1CCCC1)c1ccc([N+](=O)[O-])cc1 | inconclusive: 29.4%
13 | Cc1ccc(NS(=O)(=O)c2cccc(C(=O)Nc3cccnc3)c2)c(C)c1 | inactive: -7.55%
14 | C[C@@H]1CN([C@H](C)CO)C(=O)c2cc(NC(=O)Nc3ccc(C(F)(F)F)cc3)ccc2O[C@@H]1CN(C)Cc1ccccc1 | active: 83.2%
15 | COc1ccc(CN(C)C(=O)c2ccc(COc3ccccc3)cc2)c(OC)c1 | inconclusive: 20.1%
16 | Nc1cc(S(=O)(=O)O)cc([N+](=O)[O-])c1O | inactive: 3.92%
17 | O=C(C[C@H]1C=C[C@@H](NC(=O)Nc2ccc3c(c2)OCO3)[C@@H](CO)O1)NCc1ccc(F)cc1 | inactive: -5.83%
18 | COc1cccc(S(=O)(=O)N[C@H]2CC[C@H](CC(=O)NC3CCC3)O[C@@H]2CO)c1 | inconclusive: 32.4%
19 | C[C@@H]1CN([C@@H](C)CO)S(=O)(=O)c2ccc(C#Cc3ccc(F)cc3)cc2O[C@H]1CN(C)C | inactive: -8.85%
20 | CO[C@H]1CN(C)C(=O)c2cc(NS(=O)(=O)c3ccc(-c4ccccc4)cc3)ccc2OC[C@H](C)NC[C@@H]1C | active: 23.1%
21 | CC1(C)CC(=O)c2c(O)cc(OCC(=O)Nc3ccc(S(N)(=O)=O)cc3)cc2O1 | inconclusive: 87.1%
22 | CCOC(=O)c1c(S(=O)(=O)Nc2cccc(-c3ccno3)c2)c(C)n(C)c1C | inconclusive: 22.6%

Single entries from the results shown:
For CPE inhibition, `CCOC(=O)c1c(S(=O)(=O)Nc2cccc(-c3ccno3)c2)c(C)n(C)c1C` is listed with inconclusive: 22.6%
For CPE inhibition, `C[C@@H]1CN([C@@H](C)CO)S(=O)(=O)c2ccc(C#Cc3ccc(F)cc3)cc2O[C@H]1CN(C)C` is listed with inactive: -8.85%
For CPE inhibition, `Nc1cc(S(=O)(=O)O)cc([N+](=O)[O-])c1O` is listed with inactive: 3.92%

Later entries

Row | SMILES | CPE inhibition
23 | Cc1ccc(N=C2NC(=O)/C(=C\c3ccsc3)S2)c(C)c1 | active: 96.2%
24 | Cn1ccc2c(N3CCCC3)cc3c(c21)C1CCC3C1 (centres undefined) | inconclusive: 31.7%
25 | COc1ccccc1CN1[C@H](CO)[C@H]2c3ccccc3N(C(=O)c3ccncc3)C[C@H]21 | active: 95.2%
26 | C[C@H]1CN([C@@H](C)CO)C(=O)Cc2cc(NC(=O)c3ccncc3)ccc2O[C@H]1CN(C)Cc1ccc(C(=O)Nc2ccccc2N)cc1 | active: 58%
27 | Cc1ccc(NC(=O)NC2CC(=O)N(c3ccc4c(c3)OCCO4)C2)cc1F (centres undefined) | inconclusive: 25.3%
28 | C[C@H]1CN([C@@H](C)CO)C(=O)c2ccccc2-c2ccccc2CO[C@H]1CN(C)S(=O)(=O)c1cccc(C#N)c1 | active: 99.5%
29 | O=C(NNC(=O)c1cc(-c2ccc(Br)cc2)nc2ccccc12)c1csc(N2CCOCC2)n1 | inactive: -5.55%
30 | Cc1noc(C)c1NC(=O)Nc1ccc2c(c1)C(=O)N(C)[C@H]1CC[C@@H](CC(=O)N(C)C)O[C@H]1CO2 | inconclusive: 37.3%
31 | Cc1ccc(SC2=C[C@@]3(O)CC[C@@H](O)[C@@](Sc4ccc(C)cc4)(C2=O)[C@H]3O)cc1 | inconclusive: 37%
32 | COc1cc(NC(=O)CSc2nc(C)cs2)cc(OC)c1 | inactive: 2.81%
33 | CCCC#Cc1cnc2c(c1)C(=O)N([C@@H](C)CO)C[C@@H](C)[C@H](CN(C)C(=O)c1cnccn1)O2 | inactive: 8.11%
34 | CO[C@H]1CN(C)C(=O)c2ccc(NC(=O)Nc3c(C)noc3C)cc2OC[C@H](C)NC[C@@H]1C | inconclusive: 41%
35 | O=C(Nc1ccc(CN2CCOCC2)cc1)c1ccc(-c2ccc(Br)cc2)o1 | inconclusive: 21%
36 | CC1CCCCN1C(=O)c1ccc(COc2ccc([N+](=O)[O-])cc2)o1 (centres undefined) | inconclusive: 29.7%
37 | O=C(O)C1=CC[C@@H](c2ccc(Cl)cc2)N(S(=O)(=O)c2ccc(Cl)cc2)C1 | inconclusive: 24.2%
38 | C[C@H](CO)N1C[C@H](C)[C@H](CN(C)Cc2ccc(-c3ccccc3)cc2)Oc2ccc(NC(=O)Nc3ccc(F)cc3)cc2CC1=O | active: 33.6%
39 | Cc1[nH]c2ccc(Br)cc2c(=O)c1CN1CCCCCC1 | inconclusive: 27.4%
40 | CO[C@H]1/C=C/O[C@@]2(C)Oc3c(C)c(O)c4c(O)c(c5c(c4c3C2=O)NC2(CCN(CC(C)C)CC2)N=5)=NC(=O)/C(C)=C\C=C\[C@H](C)[C@H](O)[C@@H](C)[C@@H](O)[C@@H](C)[C@H](OC(C)=O)[C@@H]1C | active: 110%
41 | COc1cccc(-c2ccc3c(c2)[C@H]2[C@H](CCN2C(=O)C2CCCCC2)[C@@H](CO)N3)c1 | inconclusive: 24.4%
42 | CN(CCC#N)C(=O)CSc1nnc(-c2ccco2)n1N | inconclusive: 22%
43 | O=C(Nc1cc(F)ccc1F)N[C@@H]1CC[C@@H](CC(=O)N2CCc3ccccc3C2)O[C@@H]1CO | inconclusive: 22%
44 | C[C@@H]1CN([C@@H](C)CO)C(=O)c2ccccc2-c2ccccc2CO[C@@H]1CN(C)S(=O)(=O)Cc1ccccc1 | inactive: 9.12%
